The values that follow come from patent publication US20190290614A1, “Methods for Reducing Recurrence of Tumors” (Beth Israel Deaconess Medical Center, Inc., priority 2016, published 2019).

For the assay, the system named is Lewis Lung carcinoma (LLC). The experiment in a line: spontaneous LLC lung metastasis model after primary tumor resection (survival). The format is in vivo, mice. As to conditions: FR122047 20, TFAP 30, SC-560 30, indomethacin 3 mg/kg i.p.; celecoxib 60 mg/kg oral gavage; FIG. 1B. The text has this:
Doses were selected based on previous publications by the present inventors and others, and/or by analogy to the human dose.

In the case of `COc1ccc(-n2nc(C(F)(F)F)cc2-c2ccc(Cl)cc2)cc1` [SC-560, 5-(4-Chlorophenyl)-1-(4-methoxyphenyl)-3-trifluoromethyl pyrazole], the “mimicked the action of ketorolac in prolonging survival after primary LLC tumor resection” value was “mimicked the action of ketorolac”.
